In experiment [1] the target is T1, SA2 (Stromalin Antigen 2, STAG2) (human (endogenous in HCT116)) (UniProt Q8N3U4).
T1 sequence: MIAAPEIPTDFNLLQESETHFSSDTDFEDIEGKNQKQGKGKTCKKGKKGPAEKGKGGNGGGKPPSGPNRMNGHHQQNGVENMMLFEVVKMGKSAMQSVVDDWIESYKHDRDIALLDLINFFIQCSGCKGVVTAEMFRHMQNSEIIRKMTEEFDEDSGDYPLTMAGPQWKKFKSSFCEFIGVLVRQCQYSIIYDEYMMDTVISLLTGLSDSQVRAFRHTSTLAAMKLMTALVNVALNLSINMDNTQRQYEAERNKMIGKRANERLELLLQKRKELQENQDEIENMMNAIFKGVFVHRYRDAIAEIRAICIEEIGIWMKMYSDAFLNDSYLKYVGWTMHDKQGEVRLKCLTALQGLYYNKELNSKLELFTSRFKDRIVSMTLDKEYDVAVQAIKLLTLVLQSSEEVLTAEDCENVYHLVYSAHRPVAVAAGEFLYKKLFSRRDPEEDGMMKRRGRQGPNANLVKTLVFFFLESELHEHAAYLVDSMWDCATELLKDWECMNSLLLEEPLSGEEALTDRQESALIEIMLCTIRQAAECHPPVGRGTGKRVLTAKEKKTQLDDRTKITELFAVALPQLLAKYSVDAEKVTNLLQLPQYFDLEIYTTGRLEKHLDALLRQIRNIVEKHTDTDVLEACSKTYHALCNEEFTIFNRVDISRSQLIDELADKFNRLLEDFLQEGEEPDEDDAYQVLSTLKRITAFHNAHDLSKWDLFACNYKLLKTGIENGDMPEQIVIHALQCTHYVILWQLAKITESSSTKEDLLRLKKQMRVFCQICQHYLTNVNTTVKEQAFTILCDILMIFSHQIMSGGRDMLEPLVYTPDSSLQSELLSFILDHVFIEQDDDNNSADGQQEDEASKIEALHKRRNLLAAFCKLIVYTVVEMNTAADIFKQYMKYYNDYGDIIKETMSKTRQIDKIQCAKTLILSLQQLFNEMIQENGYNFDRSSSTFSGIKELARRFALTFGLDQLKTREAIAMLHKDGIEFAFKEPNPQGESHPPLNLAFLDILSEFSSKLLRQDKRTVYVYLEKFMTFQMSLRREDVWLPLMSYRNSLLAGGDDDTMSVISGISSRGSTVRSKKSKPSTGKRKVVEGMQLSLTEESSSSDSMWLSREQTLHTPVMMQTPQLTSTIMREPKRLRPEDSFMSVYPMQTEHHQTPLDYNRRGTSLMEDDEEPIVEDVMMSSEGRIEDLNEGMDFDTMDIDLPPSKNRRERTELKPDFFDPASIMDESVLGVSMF
Put plainly: co-IP.

Protein sequences, listed by entry. Tags and fused reporters are not part of them.
UniProt Q8TD26: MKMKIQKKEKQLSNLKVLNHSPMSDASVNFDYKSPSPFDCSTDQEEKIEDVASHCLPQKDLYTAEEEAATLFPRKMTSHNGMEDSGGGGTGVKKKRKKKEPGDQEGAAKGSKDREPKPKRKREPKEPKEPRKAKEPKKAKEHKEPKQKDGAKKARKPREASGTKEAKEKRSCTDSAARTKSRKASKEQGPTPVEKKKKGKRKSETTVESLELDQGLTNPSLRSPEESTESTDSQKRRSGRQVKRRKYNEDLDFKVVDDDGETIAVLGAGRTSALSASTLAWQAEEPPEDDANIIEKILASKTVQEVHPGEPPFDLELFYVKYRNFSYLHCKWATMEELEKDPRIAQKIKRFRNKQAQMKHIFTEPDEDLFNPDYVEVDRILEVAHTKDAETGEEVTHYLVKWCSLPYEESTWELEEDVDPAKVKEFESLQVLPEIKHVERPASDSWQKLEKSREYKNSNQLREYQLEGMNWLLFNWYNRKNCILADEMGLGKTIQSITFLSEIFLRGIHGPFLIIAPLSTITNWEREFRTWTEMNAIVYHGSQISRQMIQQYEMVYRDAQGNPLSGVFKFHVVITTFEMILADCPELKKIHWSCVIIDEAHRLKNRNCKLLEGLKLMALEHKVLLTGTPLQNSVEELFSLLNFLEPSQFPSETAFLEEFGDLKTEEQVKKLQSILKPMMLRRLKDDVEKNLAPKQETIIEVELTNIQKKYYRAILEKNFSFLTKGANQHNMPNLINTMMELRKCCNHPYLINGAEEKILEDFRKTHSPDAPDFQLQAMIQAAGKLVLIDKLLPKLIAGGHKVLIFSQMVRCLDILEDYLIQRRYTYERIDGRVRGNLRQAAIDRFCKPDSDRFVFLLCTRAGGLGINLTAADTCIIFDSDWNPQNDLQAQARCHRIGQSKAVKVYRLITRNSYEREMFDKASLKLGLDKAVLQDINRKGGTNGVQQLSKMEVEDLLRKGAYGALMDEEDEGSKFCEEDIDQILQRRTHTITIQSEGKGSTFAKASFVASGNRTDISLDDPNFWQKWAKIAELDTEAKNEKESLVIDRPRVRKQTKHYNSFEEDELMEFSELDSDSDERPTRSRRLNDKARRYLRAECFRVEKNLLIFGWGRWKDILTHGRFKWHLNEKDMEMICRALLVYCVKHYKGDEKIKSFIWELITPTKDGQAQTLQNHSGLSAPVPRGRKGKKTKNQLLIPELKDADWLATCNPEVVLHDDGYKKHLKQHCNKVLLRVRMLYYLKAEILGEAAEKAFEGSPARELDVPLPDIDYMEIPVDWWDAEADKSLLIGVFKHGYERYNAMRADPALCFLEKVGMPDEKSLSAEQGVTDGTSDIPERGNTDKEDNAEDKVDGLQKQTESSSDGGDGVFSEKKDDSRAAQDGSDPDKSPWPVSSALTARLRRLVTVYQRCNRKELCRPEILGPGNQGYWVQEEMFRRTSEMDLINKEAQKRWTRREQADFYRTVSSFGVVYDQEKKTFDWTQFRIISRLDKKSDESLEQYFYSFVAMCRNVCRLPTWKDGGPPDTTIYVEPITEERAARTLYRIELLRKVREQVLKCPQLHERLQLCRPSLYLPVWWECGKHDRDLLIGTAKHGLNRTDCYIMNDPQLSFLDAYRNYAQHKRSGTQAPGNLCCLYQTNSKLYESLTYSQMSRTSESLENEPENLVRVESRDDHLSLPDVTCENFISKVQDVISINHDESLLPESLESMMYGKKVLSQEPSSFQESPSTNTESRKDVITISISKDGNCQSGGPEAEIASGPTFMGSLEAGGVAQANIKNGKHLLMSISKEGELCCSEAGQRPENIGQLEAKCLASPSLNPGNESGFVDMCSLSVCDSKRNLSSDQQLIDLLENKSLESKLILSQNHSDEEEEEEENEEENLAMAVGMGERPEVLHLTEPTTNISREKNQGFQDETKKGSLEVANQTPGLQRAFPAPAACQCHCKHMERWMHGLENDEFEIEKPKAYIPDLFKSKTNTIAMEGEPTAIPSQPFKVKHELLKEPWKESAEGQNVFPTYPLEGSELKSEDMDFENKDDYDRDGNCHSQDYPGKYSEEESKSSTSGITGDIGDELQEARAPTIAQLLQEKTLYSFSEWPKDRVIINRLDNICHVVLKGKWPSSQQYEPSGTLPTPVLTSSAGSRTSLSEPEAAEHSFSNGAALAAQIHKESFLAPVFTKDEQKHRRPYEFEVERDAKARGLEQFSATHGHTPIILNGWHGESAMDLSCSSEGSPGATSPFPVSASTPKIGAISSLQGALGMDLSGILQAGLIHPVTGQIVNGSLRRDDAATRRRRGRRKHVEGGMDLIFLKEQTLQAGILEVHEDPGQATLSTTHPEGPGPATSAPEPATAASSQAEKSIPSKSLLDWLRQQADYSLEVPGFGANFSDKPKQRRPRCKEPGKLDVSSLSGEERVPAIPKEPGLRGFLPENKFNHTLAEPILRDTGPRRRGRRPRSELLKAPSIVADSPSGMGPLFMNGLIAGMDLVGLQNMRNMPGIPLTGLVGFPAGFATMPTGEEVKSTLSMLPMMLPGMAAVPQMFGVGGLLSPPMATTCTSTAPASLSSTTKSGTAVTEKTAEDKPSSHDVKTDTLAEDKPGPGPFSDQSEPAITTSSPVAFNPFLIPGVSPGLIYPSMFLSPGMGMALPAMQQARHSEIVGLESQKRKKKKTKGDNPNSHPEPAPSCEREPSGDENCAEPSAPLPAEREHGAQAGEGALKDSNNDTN

Experiment [2] deals with T2, SA1 (Stromalin Antigen 1, STAG1) (human (endogenous in HCT116)) (UniProt Q8WVM7).
T2 sequence: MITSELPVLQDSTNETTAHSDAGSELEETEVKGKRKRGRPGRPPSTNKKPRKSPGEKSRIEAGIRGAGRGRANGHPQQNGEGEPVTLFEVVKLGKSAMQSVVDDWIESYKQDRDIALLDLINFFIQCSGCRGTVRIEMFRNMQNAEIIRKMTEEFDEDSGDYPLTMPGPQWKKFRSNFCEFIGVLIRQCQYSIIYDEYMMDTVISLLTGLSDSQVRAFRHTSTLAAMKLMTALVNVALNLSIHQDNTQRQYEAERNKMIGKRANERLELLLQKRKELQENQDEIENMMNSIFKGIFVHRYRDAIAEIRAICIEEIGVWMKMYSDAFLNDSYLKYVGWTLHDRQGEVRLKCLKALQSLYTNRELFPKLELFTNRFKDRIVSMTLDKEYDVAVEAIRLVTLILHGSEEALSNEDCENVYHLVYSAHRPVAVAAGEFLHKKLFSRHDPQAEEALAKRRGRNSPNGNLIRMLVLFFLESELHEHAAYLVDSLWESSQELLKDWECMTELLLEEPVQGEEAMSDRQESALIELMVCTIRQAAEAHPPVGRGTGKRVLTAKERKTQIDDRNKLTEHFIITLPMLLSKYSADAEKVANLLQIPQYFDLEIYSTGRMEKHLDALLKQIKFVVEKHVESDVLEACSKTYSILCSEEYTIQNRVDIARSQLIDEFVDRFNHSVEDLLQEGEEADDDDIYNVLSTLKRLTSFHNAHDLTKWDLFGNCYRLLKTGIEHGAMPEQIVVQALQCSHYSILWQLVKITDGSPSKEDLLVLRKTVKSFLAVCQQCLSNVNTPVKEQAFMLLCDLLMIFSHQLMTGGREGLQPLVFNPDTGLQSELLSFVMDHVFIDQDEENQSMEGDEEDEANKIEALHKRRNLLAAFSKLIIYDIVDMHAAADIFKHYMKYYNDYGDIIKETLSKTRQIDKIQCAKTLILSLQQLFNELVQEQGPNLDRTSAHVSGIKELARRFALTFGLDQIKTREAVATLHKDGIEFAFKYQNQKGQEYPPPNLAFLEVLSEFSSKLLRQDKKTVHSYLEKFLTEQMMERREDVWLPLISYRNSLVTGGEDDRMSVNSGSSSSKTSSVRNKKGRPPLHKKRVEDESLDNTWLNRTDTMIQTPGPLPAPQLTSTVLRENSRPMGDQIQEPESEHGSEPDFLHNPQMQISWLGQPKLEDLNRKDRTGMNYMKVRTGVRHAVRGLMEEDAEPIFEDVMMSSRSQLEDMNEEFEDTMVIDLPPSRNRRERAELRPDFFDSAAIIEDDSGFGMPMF
In words: co-IP.

These are yes or no findings as the source states them, for the method shown. Binding seen in cells or lysates may run through a third protein. Some binding calls cover weakened binding; strength is not graded here. Where a sequence is shown, tags or fusion partners need not be part of it.

With CHD6 (from UniProt Q8TD26 1-2715), the binding result is reported as “binds weakly” in experiment [1] and “binds” in experiment [2].

B1: ESYT2 (protein, UniProt A0FGR8 1-921)
chain: MTANRDAALSSHRHPGCAQRPRTPTFASSSQRRSAFGFDDGNFPGLGERSHAPGSRLGARRRAKTARGLRGHRQRGAGAGLSRPGSARAPSPPRPGGPENPGGVLSVELPGLLAQLARSFALLLPVYALGYLGLSFSWVLLALALLAWCRRSRGLKALRLCRALALLEDEERVVRLGVRACDLPAWVHFPDTERAEWLNKTVKHMWPFICQFIEKLFRETIEPAVRGANTHLSTFSFTKVDVGQQPLRINGVKVYTENVDKRQIILDLQISFVGNCEIDLEIKRYFCRAGVKSIQIHGTMRVILEPLIGDMPLVGALSIFFLRKPLLEINWTGLTNLLDVPGLNGLSDTIILDIISNYLVLPNRITVPLVSEVQIAQLRFPVPKGVLRIHFIEAQDLQGKDTYLKGLVKGKSDPYGIIRVGNQIFQSRVIKENLSPKWNEVYEALVYEHPGQELEIELFDEDPDKDDFLGSLMIDLIEVEKERLLDEWFTLDEVPKGKLHLRLEWLTLMPNASNLDKVLTDIKADKDQANDGLSSALLILYLDSARNLPSGKKISSNPNPVVQMSVGHKAQESKIRYKTNEPVWEENFTFFIHNPKRQDLEVEVRDEQHQCSLGNLKVPLSQLLTSEDMTVSQRFQLSNSGPNSTIKMKIALRVLHLEKRERPPDHQHSAQVKRPSVSKEGRKTSIKSHMSGSPGPGGSNTAPSTPVIGGSDKPGMEEKAQPPEAGPQGLHDLGRSSSSLLASPGHISVKEPTPSIASDISLPIATQELRQRLRQLENGTTLGQSPLGQIQLTIRHSSQRNKLIVVVHACRNLIAFSEDGSDPYVRMYLLPDKRRSGRRKTHVSKKTLNPVFDQSFDFSVSLPEVQRRTLDVAVKNSGGFLSKDKGLLGKVLVALASEELAKGWTQWYDLTEDGTRPQAMT
In the case of B1, the binding entry in experiment [2] is “binds”.

B2: CTCF (protein, UniProt P49711 1-727)
chain: MEGDAVEAIVEESETFIKGKERKTYQRRREGGQEEDACHLPQNQTDGGEVVQDVNSSVQMVMMEQLDPTLLQMKTEVMEGTVAPEAEAAVDDTQIITLQVVNMEEQPINIGELQLVQVPVPVTVPVATTSVEELQGAYENEVSKEGLAESEPMICHTLPLPEGFQVVKVGANGEVETLEQGELPPQEDPSWQKDPDYQPPAKKTKKTKKSKLRYTEEGKDVDVSVYDFEEEQQEGLLSEVNAEKVVGNMKPPKPTKIKKKGVKKTFQCELCSYTCPRRSNLDRHMKSHTDERPHKCHLCGRAFRTVTLLRNHLNTHTGTRPHKCPDCDMAFVTSGELVRHRRYKHTHEKPFKCSMCDYASVEVSKLKRHIRSHTGERPFQCSLCSYASRDTYKLKRHMRTHSGEKPYECYICHARFTQSGTMKMHILQKHTENVAKFHCPHCDTVIARKSDLGVHLRKQHSYIEQGKKCRYCDAVFHERYALIQHQKSHKNEKRFKCDQCDYACRQERHMIMHKRTHTGEKPYACSHCDKTFRQKQLLDMHFKRYHDPNFVPAAFVCSKCGKTFTRRNTMARHADNCAGPDGVEGENGGETKKSKRGRKRKMRSKKEDSSDSENAEPDLDDNEDEEEPAVEIEPEPEPQPVTPAPPPAKKRRGRPPGRTNQPKQNQPTAIIQVEDQNTGAIENIIVEVKKEPDAEPAEGEEEEAQPAATDAPNGDLTPEMILSMMDR
As to B2, the binding result in experiment [1] is on record as “binds”.

B3: MCM3 (protein, UniProt P25205 1-808)
chain: MAGTVVLDDVELREAQRDYLDFLDDEEDQGIYQSKVRELISDNQYRLIVNVNDLRRKNEKRANRLLNNAFEELVAFQRALKDFVASIDATYAKQYEEFYVGLEGSFGSKHVSPRTLTSCFLSCVVCVEGIVTKCSLVRPKVVRSVHYCPATKKTIERRYSDLTTLVAFPSSSVYPTKDEENNPLETEYGLSVYKDHQTITIQEMPEKAPAGQLPRSVDVILDDDLVDKAKPGDRVQVVGTYRCLPGKKGGYTSGTFRTVLIACNVKQMSKDAQPSFSAEDIAKIKKFSKTRSKDIFDQLAKSLAPSIHGHDYVKKAILCLLLGGVERDLENGSHIRGDINILLIGDPSVAKSQLLRYVLCTAPRAIPTTGRGSSGVGLTAAVTTDQETGERRLEAGAMVLADRGVVCIDEFDKMSDMDRTAIHEVMEQGRVTIAKAGIHARLNARCSVLAAANPVYGRYDQYKTPMENIGLQDSLLSRFDLLFIMLDQMDPEQDREISDHVLRMHRYRAPGEQDGDAMPLGSAVDILATDDPNFSQEDQQDTQIYEKHDNLLHGTKKKKEKMVSAAFMKKYIHVAKIIKPVLTQESATYIAEEYSRLRSQDSMSSDTARTSPVTARTLETLIRLATAHAKARMSKTVDLQDAEEAVELVQYAYFKKVLEKEKKRKKRSEDESETEDEEEKSQEDQEQKRKRRKTRQPDAKDGDSYDPYDFSDTEEEMPQVHTPKTADSQETKESQKVELSESRLKAFKVALLDVFREAHAQSIGMNRLTESINRDSEEPFSSVEIQAALSKMQDDNQVMVSEGIIFLI
Turning to B3, the values for the binding result in experiment [1] and in experiment [2] were “binds weakly” and “binds”, respectively.

For the origin of these results see publication doi:10.1101/2021.02.20.432055.
